Two molecules from paper PMC10762189 can be followed below.

The experiment addresses T1, SLC25A46 (endogenous, liver) (mouse (endogenous in liver)) (UniProt Q9CQS4).
T1 sequence: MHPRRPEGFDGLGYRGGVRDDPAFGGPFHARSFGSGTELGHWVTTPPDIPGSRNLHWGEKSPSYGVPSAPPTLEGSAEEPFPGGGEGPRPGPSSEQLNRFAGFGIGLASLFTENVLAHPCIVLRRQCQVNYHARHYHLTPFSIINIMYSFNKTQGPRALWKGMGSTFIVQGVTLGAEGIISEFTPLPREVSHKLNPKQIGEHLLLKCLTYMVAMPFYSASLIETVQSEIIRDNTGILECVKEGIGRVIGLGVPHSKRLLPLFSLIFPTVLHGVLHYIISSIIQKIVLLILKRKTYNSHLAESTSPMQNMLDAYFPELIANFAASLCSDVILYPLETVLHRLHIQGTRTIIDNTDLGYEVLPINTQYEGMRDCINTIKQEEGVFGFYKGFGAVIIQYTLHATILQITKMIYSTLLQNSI
Nature of the experiment: co-IP; liver lysates with anti-GFP (control) or anti-SLC25A46 at 4 °C overnight; immunoblot. In general terms: In western blotting, separated proteins are transferred to a membrane and probed.

No constants are given. Whether binding was seen depends on the method and setting. Binding seen in cells or lysates may run through a third protein. Some binding calls cover weakened binding; strength is not graded here.

B1: Mic19 (endogenous, liver) (protein, UniProt Q9CRB9 1-227)
chain: MGGTASTRRVTFEADENENITVVKGIRLSENVIDRMKESSPSGSKSQRYSSVYGASVSDEDLKRRVAEELALEQAKKESEHQRRLKQARDLERERAAANEQLTRAVLRERISSEEERMKAKHLARQLEEKDRVMRKQDAFYKEQLARLEERSSEFYKVTTEEYQKAAEEVEAKFKRYEYHPVCADLQTKILQCYRQNTQQTLSCSALASQYMHCVNHAKQSMLEKGG
Consider B1, for which the binding entry is “binds”.

B2: EMC2 (endogenous, liver) (protein, UniProt Q9CRD2 1-297)
chain: MAKVTERYDVTWEEMRDKMRKWREENSRNSEQIMEVGEELINDYASKLGDDIWIIYEQVMIAALDYGRDDLALFCLQELRRQFPGSHRVKRLTGMRFEAMERYDDAIQLYDRILQEDPTNTAARKRKIAIRKAQGKTVEAIRELNEYLEQFVGDQEAWHELAELYINEHDYAKAAFCLEELMMTNPHNHLYCQQYAEVKYTQGGLENLELSRKYFAQALKLNNRNMRALFGLYMSASHIASNPKASAKMKKDNIKYASWAANQINRAYQFAGRSKKETKYSLKAVEDMLETLQITQS
B2: the binding result is listed as “binds”.
